Results reported in patent EP0316769A2, “Disulfide bridged cyclic peptides containing a cgridri sequence useful in control of hypertension” (G.D. Searle & Co., priority 1987, dated 1989).
Entries after “also recorded” stand apart in the source; their conditions may differ. Part of at least one peptide drawing is inferred or uncertain, most often the ends. Residues, ends and D or L forms follow the SMILES beside them.

Assays:
[1] = tested on: atrial peptide binding sites; experiment: Competitive binding of 125I-AP-III on particulate rabbit lung membrane preparation
isolated rat aorta = experiment: cGMP production in isolated rat aorta; type: cell-based; details: 700 nM, conditions identical to the control
conscious rats = experiment: Effects on mean arterial pressure, urine flow rate and urinary sodium excretion in conscious rats; type: in vivo
[2] = co-infusion with AP-III, Fig. 7

CC[C@H](C)[C@@H]1NC(=O)[C@H](CCCNC(=N)N)NC(=O)[C@H](CC(=O)O)NC(=O)[C@H]([C@@H](C)CC)NC(=O)[C@H](CCCNC(=N)N)NC(=O)CNC(=O)[C@@H](NC(=O)[C@H](CO)NC(=O)[C@@H](N)CO)CSSC[C@@H](C(=O)N[C@@H](CC(N)=O)C(=O)N[C@@H](CO)C(=O)N[C@@H](Cc2ccccc2)C(=O)N[C@@H](CCCNC(=N)N)C(=O)N[C@@H](Cc2ccc(O)cc2)C(=O)O)NC(=O)CNC(=O)[C@H](CC(C)C)NC(=O)CNC(=O)[C@H](CO)NC(=O)CNC1=O [Peptide No. 1] (HELM PEPTIDE1{S.S.C.G.R.I.D.R.I.G.S.G.L.G.C.N.S.F.R.Y}$PEPTIDE1,PEPTIDE1,3:R3-15:R3$$$V2.0)
selectivity for the uncoupled (guanyl cyclase-free) AP binding site [1]: binds selectively
stimulation of guanylate cyclase activity / cyclic GMP production (isolated rat aorta): little or no stimulation; also recorded: no increase
depressor response to AP-III (conscious rats; [2]): potentiated
diuretic response to AP-III (conscious rats; [2]): not the diuretic
natriuretic response to AP-III (conscious rats; [2]): not the diuretic or natriuretic
mean arterial pressure (conscious rats; infused alone, Fig. 6): no effect
urinary sodium excretion (natriuresis) (conscious rats; infused alone, Fig. 6): mild diuresis and natriuresis
urine flow rate (diuresis) (conscious rats; infused alone, Fig. 6): mild diuresis
